{"source": "PubChem BioAssay AID504764 (Drosophila RNAi Screening Center, 2011)", "assay": "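Knock-downs that raise or lower a Notch target reporter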 (primary screen)", "cells": "Drosophila Kc167 cells", "reagents": "long dsRNA against Drosophila genes", "duration": "about 5 days (4 days dsRNA, then 24 h after transfection)", "challenge": "transfection of constitutively active membrane-tethered Notch lacking the extracellular domain, read 24 h later", "detection": "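Firefly luciferase from an E(spl)m3 reporter with active Notch, plus control-promoter and uninduced reporter wells for normalisation; unnormalised counts, duplicate wells a and b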", "scale": "induced reporter light, run 1, well a and induced reporter light, run 1, well b: higher = more light from the Notch target reporter with active Notch; control promoter light, run 1, well a and control promoter light, run 1, well b: higher = more light from the viral control promoter (cell number, transfection, viability); uninduced reporter light, run 1, well a: higher = more light from the Notch target reporter without active Notch", "hit rule": "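Hit if the duplicate-averaged log2 ratio of induced to control-promoter light gives a plate-wise z beyond ±2, or induced to uninduced beyond ±1.8; weak-control or discordant-duplicate wells dropped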", "meaning of the calls": "active = modifier hit (raised or lowered Notch signal); inactive = not a hit", "note": "In all, the deposit lists about 22,000 reagents; shown is a random part of those that have a named target and a result. In the full data, 403 (1.9%) got an active call. 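Unnormalised raw counts per well; ratio z-scores behind the hit calls and whether each hit raises or lowers signal are not deposited.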 A plus sign joins genes that one reagent is predicted to hit. The record does not give: the amount of reagent."}
{"predicted target":"Gdap1","amplicon":"DRSC10437","induced reporter light, run 1, well a":2.49e5,"induced reporter light, run 1, well b":1.84e5,"control promoter light, run 1, well a":1.69e5,"control promoter light, run 1, well b":1.65e5,"uninduced reporter light, run 1, well a":10020,"Call":"inactive"}
{"predicted target":"msk","amplicon":"DRSC11340","induced reporter light, run 1, well a":98535,"induced reporter light, run 1, well b":1.16e5,"control promoter light, run 1, well a":83190,"control promoter light, run 1, well b":36700,"uninduced reporter light, run 1, well a":10805,"Call":"inactive"}
{"predicted target":"Crz","amplicon":"DRSC16615","induced reporter light, run 1, well a":2.37e5,"induced reporter light, run 1, well b":2.34e5,"control promoter light, run 1, well a":1.89e5,"control promoter light, run 1, well b":2.01e5,"uninduced reporter light, run 1, well a":14850,"Call":"inactive"}
{"predicted target":"Rtel1","amplicon":"DRSC18343","induced reporter light, run 1, well a":1.16e5,"induced reporter light, run 1, well b":1.24e5,"control promoter light, run 1, well a":2.50e5,"control promoter light, run 1, well b":2.35e5,"uninduced reporter light, run 1, well a":9932,"Call":"inactive"}
{"predicted target":"Adgf-B","amplicon":"DRSC10568","induced reporter light, run 1, well a":1.86e5,"induced reporter light, run 1, well b":1.69e5,"control promoter light, run 1, well a":1.98e5,"control promoter light, run 1, well b":1.92e5,"uninduced reporter light, run 1, well a":7385,"Call":"inactive"}
{"predicted target":"ZnT49B","amplicon":"DRSC07225","induced reporter light, run 1, well a":90895,"induced reporter light, run 1, well b":1.15e5,"control promoter light, run 1, well a":1.49e5,"control promoter light, run 1, well b":91500,"uninduced reporter light, run 1, well a":9370,"Call":"inactive"}
{"predicted target":"pes","amplicon":"DRSC03033","induced reporter light, run 1, well a":1.51e5,"induced reporter light, run 1, well b":1.76e5,"control promoter light, run 1, well a":1.01e5,"control promoter light, run 1, well b":1.19e5,"uninduced reporter light, run 1, well a":21150,"Call":"inactive"}
{"predicted target":"Df31","amplicon":"DRSC03738","induced reporter light, run 1, well a":1.71e5,"induced reporter light, run 1, well b":1.61e5,"control promoter light, run 1, well a":1.62e5,"control promoter light, run 1, well b":1.89e5,"uninduced reporter light, run 1, well a":16805,"Call":"inactive"}
{"predicted target":"CG34444","amplicon":"DRSC06435","induced reporter light, run 1, well a":93760,"induced reporter light, run 1, well b":83915,"control promoter light, run 1, well a":1.06e5,"control promoter light, run 1, well b":1.15e5,"uninduced reporter light, run 1, well a":9355,"Call":"inactive"}
{"predicted target":"CG13062","amplicon":"DRSC09945","induced reporter light, run 1, well a":1.85e5,"induced reporter light, run 1, well b":1.75e5,"control promoter light, run 1, well a":2.01e5,"control promoter light, run 1, well b":1.67e5,"uninduced reporter light, run 1, well a":7430,"Call":"inactive"}
{"predicted target":"CG5321","amplicon":"DRSC19940","induced reporter light, run 1, well a":74255,"induced reporter light, run 1, well b":61385,"control promoter light, run 1, well a":87735,"control promoter light, run 1, well b":91640,"uninduced reporter light, run 1, well a":11335,"Call":"inactive"}
{"predicted target":"atos","amplicon":"DRSC07318","induced reporter light, run 1, well a":1.06e5,"induced reporter light, run 1, well b":90960,"control promoter light, run 1, well a":1.23e5,"control promoter light, run 1, well b":1.17e5,"uninduced reporter light, run 1, well a":8765,"Call":"inactive"}
{"predicted target":"TTLL5","amplicon":"DRSC14181","induced reporter light, run 1, well a":1.71e5,"induced reporter light, run 1, well b":1.94e5,"control promoter light, run 1, well a":2.26e5,"control promoter light, run 1, well b":2.30e5,"uninduced reporter light, run 1, well a":17275,"Call":"inactive"}
{"predicted target":"Cad86C","amplicon":"DRSC15587","induced reporter light, run 1, well a":79130,"induced reporter light, run 1, well b":90700,"control promoter light, run 1, well a":92930,"control promoter light, run 1, well b":73890,"uninduced reporter light, run 1, well a":7095,"Call":"inactive"}
{"predicted target":"Cad86C","amplicon":"DRSC15611","induced reporter light, run 1, well a":99705,"induced reporter light, run 1, well b":95675,"control promoter light, run 1, well a":93820,"control promoter light, run 1, well b":95055,"uninduced reporter light, run 1, well a":7210,"Call":"inactive"}
{"predicted target":"side-IV","amplicon":"DRSC14833","induced reporter light, run 1, well a":2.19e5,"induced reporter light, run 1, well b":2.11e5,"control promoter light, run 1, well a":2.12e5,"control promoter light, run 1, well b":2.40e5,"uninduced reporter light, run 1, well a":18130,"Call":"inactive"}
{"predicted target":"cola + swif","amplicon":"DRSC06826","induced reporter light, run 1, well a":2.07e5,"induced reporter light, run 1, well b":1.94e5,"control promoter light, run 1, well a":2.91e5,"control promoter light, run 1, well b":2.38e5,"uninduced reporter light, run 1, well a":16240,"Call":"inactive"}
{"predicted target":"CG15461","amplicon":"DRSC20532","induced reporter light, run 1, well a":1.14e5,"induced reporter light, run 1, well b":1.06e5,"control promoter light, run 1, well a":1.22e5,"control promoter light, run 1, well b":1.22e5,"uninduced reporter light, run 1, well a":11885,"Call":"inactive"}

2 entries from above, ordered by “induced reporter light, run 1, well b”, low to high.
{"predicted target":"msk","amplicon":"DRSC11340","induced reporter light, run 1, well a":98535,"induced reporter light, run 1, well b":1.16e5,"control promoter light, run 1, well a":83190,"control promoter light, run 1, well b":36700,"uninduced reporter light, run 1, well a":10805,"Call":"inactive"}
{"predicted target":"Crz","amplicon":"DRSC16615","induced reporter light, run 1, well a":2.37e5,"induced reporter light, run 1, well b":2.34e5,"control promoter light, run 1, well a":1.89e5,"control promoter light, run 1, well b":2.01e5,"uninduced reporter light, run 1, well a":14850,"Call":"inactive"}
